# Percent effect of library compounds

From ChEMBL document CHEMBL3988442, “University of Dundee, Small-Polar-MMV Screening Library” (2021).

Mtb cholesterol medium: 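Growth of Mycobacterium tuberculosis over 4 days (cholesterol / DPPC medium with tyloxapol); the read-out is not stated. Tested at 50 µM. Direction is inferred from retests: higher values go with more growth inhibition. Size under these conditions: about 69,000 compounds, about 370 of them at 50% or above in at least one test.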
Mtb glucose medium: 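Growth of Mycobacterium tuberculosis over 3 days (7H9 medium with glucose and tyloxapol); the read-out is not stated. Tested at 50 µM. Higher reads as more growth inhibition (inferred: compounds with an IC50 in retests scored well above the rest). Of about 69,000 compounds tested this way, about 760 (1.1%) reached 50% or more in at least one test.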

Each number is a percent effect as filed.
The record does not define 0% and 100%; most values in the screen are far below 50% and negative numbers occur (in some assays of this library far below -100).
Compounds were drawn at random from those tested, without regard to their results.
Two or more numbers in one place are separate tests of the same structure; such repeats can differ widely.

compound,Mtb cholesterol medium,Mtb glucose medium
O=C(Nc1ccccc1)C1CN(Cc2nccs2)CC12CCOCC2 (stereo not drawn),-27.92%,-24.29% & -7.973%
Cc1nccn1C1CCCN(C(=O)c2cccc(-n3cccc3)c2)C1 (stereo not drawn),-14.41%,1.26%
CCNC(=O)c1ccc(NC2CCOC3(CCCCC3)C2)nn1 (stereo not drawn),-33.52%,-2.435%
COc1cc(F)ccc1C(C(=O)O)N(C)CCN1CCOCC1 (stereo not drawn),10.78%,-15.58%
CC(C)c1cc(=O)[nH]c(-n2nc(C3CC3)cc2N)n1,88.29%,93.45%
CN(CCOc1cccc(Cl)c1)Cc1nnc(C(C)(C)C)o1,-2.434%,-9.427%
O=C(O)C(F)(F)F.[H][C@@]12CCN(CC3CCC3)C[C@]1([H])[C@H](C(=O)NC1CC1)CCO2,-13.04%,7.886%
COc1ccc(C2=CCN(C(=O)C3CCS(=O)(=O)C3)CC2)cc1 (stereo not drawn),-10.49%,13.35%
CCn1c(C)nnc1CN(C)C1CCN(CCc2ccncc2)C1 (stereo not drawn),-17.14%,6.987%
COc1ccc(CN2CCn3cc(CN4CCN(C)CC4)nc3C2)cc1.O=C(O)C(F)(F)F.O=C(O)C(F)(F)F.O=C(O)C(F)(F)F,-9.981%,12.78%
Cc1ncsc1CN1CCN(C2CCOCC2)CC(C(N)=O)C1 (stereo not drawn),-6.384%,12.33%
O=C(CCc1ccc(Cl)s1)N1CCCC(n2cncn2)C1 (stereo not drawn),0.7845%,11.66%
COc1cc2cc(C(=O)NCC(=O)O)n(C)c2c(OC)c1OC,-25.41%,-60.85%
O=C(Nc1ccc(-c2nnc[nH]2)cc1)C1CCN1Cc1ccccc1 (stereo not drawn),-11.27%,-19.51%
[H][C@@]12COC[C@]1(COCC1CC1)CN(S(=O)(=O)c1ccccc1)C2,10.67%,-1.161% & -2.941%
COCC(=O)N1CCCn2c(CN3CCOCC3)nnc2C1.O=C(O)C(F)(F)F,12.54%,-8.297%
COCCc1noc(CN2CCCCC2Cn2nc(C)cc2C)n1 (stereo not drawn),4.669%,14.46%
Cc1cc(-c2c[nH]nc2C2CCCCN2C(=O)c2ccccc2)on1 (stereo not drawn),0.6259%,1.987%
COc1c(-c2ccc(O)cc2)oc2cc(O)cc(O)c2c1=O,7.771%,9.542% & 10.87%
CC(C(=O)N1CCOCC1)N1CCN(Cc2nccn2C)CC1 (stereo not drawn),-4.666%,-27.87%
CC(C)[C@H]1CN(c2ccncc2)C[C@@H]1NC(=O)C1(C#N)CCOCC1,-9.245%,-10.58%
Cc1ccc(NC(=O)NCCCc2n[nH]c(N)c2C#N)cc1,-1.503%,-9.281%
Cc1ccc(CN2CCc3onc(COc4cccnc4)c3C2)s1.O=C(O)C(F)(F)F.O=C(O)C(F)(F)F,-0.6271%,11.47%
CC(Cn1ccnc1)NCc1csc2c1CCCC2 (stereo not drawn),7.01%,-3.023%
[H][C@]12CC[C@]([H])(CN(C(=O)c3ccccn3)C1)N(C(=O)CCN1CCCC1)C2,-4.703% & -1.158%,8.407%
Cl.O=C(NCCO)C1(Cc2ccccc2-c2cccnc2)CCOCC1,-7.067%,-3.612%
Cn1c(Cn2ccnc2)nnc1C1CCN(C(=O)c2ccoc2)CC1,-3.68%,-18.9%
NC1CCCc2nc(-c3ccccc3)ncc21 (stereo not drawn),20.12%,27.71%
CN1CCN(Cc2cnc3n2CCN(Cc2cccnc2)CC3)CC1.O=C(O)C(F)(F)F.O=C(O)C(F)(F)F.O=C(O)C(F)(F)F,28.9%,26.09%
Cc1cc(NC(=O)CN(C)CC2CCCN2c2cccnn2)n(C)n1 (stereo not drawn),7.92%,-3.976% & -2.068%
CN(C)CCN1CCCC12CCN(C(=O)c1cnccn1)CC2,6.967%,23.53%
CCc1noc(C(C)N2CCN(Cc3nc(C)c(C)o3)CC2)n1 (stereo not drawn),-1.393%,-32.46%
COc1cccc2c1ccn2CCC(=O)NCCCC(=O)O,2.037%,-14.37%
O=C(CSc1ccccc1F)NS(=O)(=O)c1ccc2c(c1)OCCO2,-3.359%,13.43%
CCC(C)NC(=O)CCc1ccc(OCC(F)(F)F)c(OC)c1 (stereo not drawn),-2.524%,17.01%
Cc1nnc2n1CCN(CC(=O)Nc1cc(C(C)C)no1)C2,12.91%,18.84%
Cc1cc(C)n(-c2ccc(N3CCC(O)CC3)nc2)n1,-1.506%,19.43%
CCc1cc(N2CCN3CCCCC3C2)n2nccc2n1 (stereo not drawn),-1.922%,-0.3501%
c1ccc(CSc2nnc(C3CC3)s2)nc1,16.17%,31.67%
Cc1noc(C)c1CN1CCC2(CC1)C(c1cnn(C)c1)CC(=O)N2C.O=C(O)C(F)(F)F (stereo not drawn),-4.124%,-5.656%
O=C(C1=CCCCC1)N1CCC2(CC1)COC(COc1ccccn1)C2.O=C(O)C(F)(F)F (stereo not drawn),-29.5%,2.287%
COc1ccc(-c2cn[nH]c2)cc1CNC1CCCC1,12.19%,15.06%
CC(C)(C)c1cn2c(n1)C(CNCc1ccccn1)CCC2 (stereo not drawn),18.07%,5.876% & 17.27%
Cc1ccc(S(=O)(=O)N(C)c2ccsc2C(=O)NCC(C)C)cc1,-59.42%,-40.51%
CC(=O)NCC1CCN(Cc2nc(C3CC3)no2)CC1,-11.96%,-2.436%
CC(=O)Nc1nc(C(=O)N2CCCC2c2noc(C3CC3)n2)cs1 (stereo not drawn),-6.589%,3.619%
COc1ccnc(N2CCN(C(=O)Cc3csc(C)n3)CC2)n1,-3.593%,-25.62%
OCc1cn([C@@H]2c3ccccc3C3(CCNCC3)[C@H]2O)nn1,-9.242%,11.39%
COc1ccc(Br)c(NC(=O)NCc2cnn(C)c2)c1,0.1167%,12.02%
COCCN(Cc1ccccn1)C(=O)c1ccc(=O)n(C)c1,-16.97%,-21.75%
Cn1ncc2c(=O)[nH]c(CN3CCCC3CCc3ccccc3)nc21 (stereo not drawn),6.335%,-0.2136%
CN(Cc1cnn(-c2ccccc2)n1)C1CCCN(c2cccnn2)C1 (stereo not drawn),-2.471%,21.72%
CC(C)(C)n1cc(C(=O)NCCN2CCOCC2)c2cccnc21,-9.712%,-18.95%
O=S1(=O)CCC(n2cc(C3=CCN(CCN4CCCCC4)CC3)cn2)C1 (stereo not drawn),8.283%,9.915%
N#Cc1ccc(OCCN2CCNC(=O)C2c2cccs2)cc1 (stereo not drawn),-2.88%,-5.491% & 0.9548%
[H][C@]12CCN(C(=O)Nc3cccc(OC)c3)CC[C@@]1([H])S(=O)(=O)N(C)C2,-3.772%,-25.34%
CNC(=O)C1(c2cnccn2)CCCN1C(=O)c1ncccc1C (stereo not drawn),-16.49%,-2.267%
CC(C)c1nn(C)c(N(C)C)c1CNCc1cccnc1,9.937%,8.56% & -3.954%
CC(C)(C)c1cc(C(=O)NCCN2CCCS2(=O)=O)[nH]n1,-9.474%,-1.452%
CNC(=O)CCN1CCC(c2nnc(Cn3cccn3)n2C2CC2)CC1,-15.56%,-33.1%

For reference, 7 entries once more:

COc1ccc(C2=CCN(C(=O)C3CCS(=O)(=O)C3)CC2)cc1 (stereo not drawn) gave Mtb cholesterol medium: -10.49%; Mtb glucose medium: 13.35%.
COc1c(-c2ccc(O)cc2)oc2cc(O)cc(O)c2c1=O gave Mtb cholesterol medium: 7.771%; Mtb glucose medium: 9.542% & 10.87%.
CN(CCOc1cccc(Cl)c1)Cc1nnc(C(C)(C)C)o1 gave Mtb cholesterol medium: -2.434%; Mtb glucose medium: -9.427%.
OCc1cn([C@@H]2c3ccccc3C3(CCNCC3)[C@H]2O)nn1 gave Mtb cholesterol medium: -9.242%; Mtb glucose medium: 11.39%.
Cl.O=C(NCCO)C1(Cc2ccccc2-c2cccnc2)CCOCC1 gave Mtb cholesterol medium: -7.067%; Mtb glucose medium: -3.612%.
O=C(Nc1ccccc1)C1CN(Cc2nccs2)CC12CCOCC2 (stereo not drawn) gave Mtb cholesterol medium: -27.92%; Mtb glucose medium: -24.29% & -7.973%.
COc1ccc(Br)c(NC(=O)NCc2cnn(C)c2)c1 gave Mtb cholesterol medium: 0.1167%; Mtb glucose medium: 12.02%.